The results in this text go back to PubChem BioAssay AID1347426 (Functional Genomics Laboratory (NCATS/FGL), 2020).

Among all 31,000 sequences or so, about 1,400 (4.5%) were called active.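 Rule for the calls: active = median seed-adjusted z-score above 1 or below -1; inactive = the rest.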 This is one part of the list.

A short description of this assay: Novel Modifiers of Survival Motor Neuron (SMN) Protein: Gene Identification via Genome-wide siRNA Screen.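 Note: luminescence tracks full-length SMN protein made from the SMN2 reporter.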 As to conditions: HEK293T SMN2-luciferase reporter, siRNA knockdown, 72 h; actives lie on both sides. Summed up:
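Luciferase signal, proportional to full-length SMN made from an SMN2 cDNA reporter in stable HEK293T cells, was read 72 h after siRNA reverse transfection. Values were expressed as MAD scores after non-targeting-control normalization and log10 conversion; seed analysis flagged off-targets.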
On the technique in general: A reporter such as luciferase makes a cellular process visible.
For CCGUCCUUAUCUCAUCAAATT against HADHA, the median seed-adjusted z-score is inactive: 0.47. The value for CCACAGACUUGGUGCCUGATT against RAB43 was inactive: -0.0845; that for CCUUUUACAUGUUCUAUUUTT against SIVA1 was inactive: 0.0451; that for GCCUAAACAGUGACCGAUUTT against BDH1 was inactive: -0.0253. As for GCACUCCUGUGCUUUAAAATT against XYLB, the median seed-adjusted z-score is inactive: -0.414.

GAAUAGAUCUUGAAGACUUTT against FGL2: the median seed-adjusted z-score is inactive: 0. The value for GCUAGAUACUGGAAACCUATT against DCN was inactive: 0.326. Regarding GCAAUCACAUUGCUCUGUATT against PIGL, the median seed-adjusted z-score was inactive: 0.827. On to GAAGCUCUCUUGACUAUGATT against FKBP3, for which the median seed-adjusted z-score was inactive: -0.102. Regarding AGACCGCUGUGAUCGAGGATT against NACC2, the median seed-adjusted z-score was inactive: 0.144.

With GAAUCAUGCUUGUUGGUGATT against LEPREL1, the median seed-adjusted z-score is inactive: 0.0654. Regarding GGCUGGGUUCAUUACAUGATT against CKS2, the median seed-adjusted z-score was inactive: 0.0907.

Turning to GCAUGCUGUUAGCCGAUAATT against TOMM70A, the median seed-adjusted z-score was inactive: 0.0717. With GACCAGUAAUGAUUGUGGUTT against EPHA6, the median seed-adjusted z-score was inactive: 0.0445. Regarding CCCUGUGGAUCUACUCGAATT against RTN4RL1, the median seed-adjusted z-score was inactive: -0.537. As to CCCUAUGAACAAUACGCAATT against DNAJC6, the median seed-adjusted z-score was inactive: -0.265. In the case of GCCUGAGAAUAAUAUGUCUTT against EXO1, the median seed-adjusted z-score was inactive: 0.547. Take GGCAUGAAUUUGAACUGUATT against CA8: the median seed-adjusted z-score was inactive: 0.172. The value for GCGCUUUGGAGAUCCGAGATT against KLC3 was inactive: -0.156; that for GUAUGUCACCUAUCACUGUTT against SLC25A38 was inactive: 0. As for CGACUCCUUCGACCACAAATT against PVALB, the median seed-adjusted z-score is inactive: 0.11.

For GGAUGCUAAUGAAACUGGUTT against NR1H3, the median seed-adjusted z-score was inactive: 0.426. On to CCAGAGGCAGAGUACAUCATT against VGLL2, for which the median seed-adjusted z-score is inactive: -0.0234. Take UGAGCUGUCCCAUUAAACATT against ARHGDIG: the median seed-adjusted z-score was inactive: 0.227. As for CAAGGUUUUUAGUUACAAUTT against ZNF480, the median seed-adjusted z-score is inactive: -0.164. As for GGAAUUAUAUUCAUCGUGATT against LCK, the median seed-adjusted z-score was inactive: 0.676. Regarding GGCUGUUCGAGUCCUGAAATT against FMO1, the median seed-adjusted z-score was inactive: 0.323. As to CCAAUGCUGUGACUUUCGATT against KIFC3, the median seed-adjusted z-score is inactive: 0.54. The value for GAACUGUUUGUUAACGUAATT against RIPK3 was inactive: 0.123; that for CAACUUGUCUCAGUCAACATT against STXBP4 was inactive: -0.565.
